Results as given in PMC8138766.
These are yes or no findings as the source states them, for the method shown. In cells and extracts the contact can be indirect. Some entries that bind do so weakly or less than the wild type. Where a sequence is shown, tags or fusion partners need not be part of it.

Chains of the proteins cited; added tags and fusions are not shown.
UniProt P52286: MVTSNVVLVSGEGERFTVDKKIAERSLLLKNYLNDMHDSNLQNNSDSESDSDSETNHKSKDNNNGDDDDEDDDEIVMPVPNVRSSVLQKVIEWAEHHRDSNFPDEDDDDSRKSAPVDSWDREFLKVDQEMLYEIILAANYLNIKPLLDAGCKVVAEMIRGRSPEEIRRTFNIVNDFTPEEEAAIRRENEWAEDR

Biological target: T1, Rav2-FLAG (yeast) (UniProt Q03956)
T1 sequence: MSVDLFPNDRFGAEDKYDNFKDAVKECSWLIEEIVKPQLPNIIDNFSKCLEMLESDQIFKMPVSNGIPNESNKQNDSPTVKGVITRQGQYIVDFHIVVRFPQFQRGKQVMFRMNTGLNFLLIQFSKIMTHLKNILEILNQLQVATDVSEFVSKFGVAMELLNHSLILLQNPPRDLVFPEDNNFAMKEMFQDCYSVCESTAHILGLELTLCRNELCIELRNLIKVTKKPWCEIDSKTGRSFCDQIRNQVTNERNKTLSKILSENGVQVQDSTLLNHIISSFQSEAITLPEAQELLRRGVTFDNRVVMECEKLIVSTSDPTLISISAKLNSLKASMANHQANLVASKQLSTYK
Assay: co-IP; anti-FLAG M2 affinity column on cleared lysate of galactose-induced yeast (bait Rav2-FLAG), PBS or TBSE pH 7.4, elution with FLAG peptide; Coomassie SDS-PAGE and immunoblots for V1 subunits A, B and C

binding: binds
Substance: Skp1–His6 (from UniProt P52286 1-194)
